Test results: the supplement of paper PMC12823440, “Inhibitors supercharge kinase turnover through native proteolytic circuits” (Nature, 2025)
Counter-ions that a name gives are not always drawn. The list shows a part of the results. The calls rarely recur for the same compound in another form.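 Kinases were expressed as nanoluciferase fusions in K562 cells and luminescence was read every 4 h between 2 and 18 h as percent of control, DMSO set to 100% and a positive control to 0%. A time point counts as decreased when the signal drops significantly (2 sigma). The hit call is the authors' own, does not follow from the count of time points alone, and its rule is not shown.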

Protein sequences, listed by entry. Tags and fused reporters are not part of them.
UniProt Q96GD4, whole entry: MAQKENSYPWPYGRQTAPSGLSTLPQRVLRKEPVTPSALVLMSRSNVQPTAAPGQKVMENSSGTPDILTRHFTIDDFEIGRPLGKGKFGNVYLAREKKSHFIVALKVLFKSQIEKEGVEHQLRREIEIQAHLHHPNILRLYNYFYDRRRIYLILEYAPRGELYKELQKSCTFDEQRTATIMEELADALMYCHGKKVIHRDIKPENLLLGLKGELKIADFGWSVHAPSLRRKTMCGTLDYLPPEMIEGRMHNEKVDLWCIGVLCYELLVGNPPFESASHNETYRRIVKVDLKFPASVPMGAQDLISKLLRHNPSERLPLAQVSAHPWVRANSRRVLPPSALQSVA

molecular target: AURKB (UniProt Q96GD4); test: kinase-Nluc reporter destabilization hit call (1 = scored as downregulated) (binary); higher = compound decreases kinase abundance; conditions: K562; 2-18 h

kinase-Nluc reporter destabilization hit call, inactive:
COc1cc2nccc(Oc3ccc(NC(=O)NC4CC4)c(Cl)c3)c2cc1C(N)=O [Lenvatinib] (10 µM) 0, COc1ccc2c(OCc3nnc4ccc(-c5ccccc5)nn34)ccnc2c1 (2 µM) 0, COc1cc2ncnc(Nc3ccc(Cl)cc3F)c2cc1OC (10 µM) 0, N#Cc1c(C2CCNCC2)cc(-c2c(O)cccc2OCC2CC2)nc1N [ACHP (Hydrochloride)] (10 µM) 0, CNC(=O)c1c(F)cccc1Nc1nc(Nc2cc3c(cc2OC)CCN3C(=O)CN(C)C)nc2[nH]ccc12 (10 µM) 0, COc1cc2c(N3CCN(C(=O)Nc4ccc(OC(C)C)cc4)CC3)ncnc2cc1OCCCN1CCCCC1 [Tandutinib (hydrochloride)] (10 µM) 0, CN1CCN(c2cccc(Nc3nc4c(-c5ccc(S(C)(=O)=O)cc5)cccn4n3)c2)CC1 (10 µM) 0, Cn1cc(-c2ccc3c(c2)CCN3C(=O)Cc2cccc(C(F)(F)F)c2)c2c(N)ncnc21 (2.5 µM) 0, O=Nc1c(-c2c(O)[nH]c3ccc(F)cc23)[nH]c2ccccc12 [5'-Fluoroindirubinoxime] (10 µM) 0, C=C(CC[C@@H](C(=O)O)[C@H]1[C@H](O)C[C@@]2(C)C3=C(CC[C@]12C)[C@@]1(C)CC[C@H](OC(C)=O)C(C)(C)[C@@H]1CC3)C(C)C [Pachymic acid] (10 µM) 0, Cc1cc(Nc2ncnc3ccc(NC4=NC(C)(C)CO4)cc23)ccc1Oc1ccn2ncnc2c1 [Tucatinib] (2.5 µM) 0, CCNc1nc(Nc2cc(F)c(C(=O)N3CCOCC3)cc2OC)ncc1C(F)(F)F [GNE-7915 (tosylate)] (10 µM) 0, Cc1ccc(C(=O)Nc2ccc(Oc3cc4cnn(C)c4cc3-c3cn[nH]c3)c(F)c2)c(=O)n1-c1ccc(F)cc1 [Merestinib dihydrochloride] (2.5 µM) 0, Nc1ncnc2c1c(-c1cccc(OCc3ccccc3)c1)cn2C1CC(CN2CCC2)C1 (stereo not drawn) (2.5 µM) 0, Cn1cnc2c(F)c(Nc3ccc(Br)cc3Cl)c(C(=O)NOCCO)cc21 [Selumetinib (sulfate)] (10 µM) 0, Cc1cc(Nc2ncnc3ccc(NC4=NC(C)(C)CO4)cc23)ccc1Oc1ccn2ncnc2c1 [Tucatinib (hemiethanolate)] (2.5 µM) 0, Cc1cc2ncc(-c3ccc(O)c(O)c3)nc2cc1C [Tyrphostin AG1433] (10 µM) 0, CCN1CCN(Cc2ccc(Nc3ncc(F)c(-c4cc(F)c5nc(C)n(C(C)C)c5c4)n3)nc2)CC1 [Abemaciclib (methanesulfonate)] (10 µM) 0, Cn1cnc2c(F)c(Nc3ccc(Br)cc3Cl)c(C(=O)NOCCO)cc21 [Selumetinib] (10 µM) 0, S=C(SSC(=S)N1CCOCC1)N1CCOCC1 (10 µM) 0, Cn1nccc1Nc1nccc(-c2ccn([C@H](CO)c3ccc(Cl)c(F)c3)c(=O)c2)n1 [Ravoxertinib hydrochloride] (10 µM) 0, Cc1ccc(C(=O)Nc2ccc(Oc3cc4cnn(C)c4cc3-c3cn[nH]c3)c(F)c2)c(=O)n1-c1ccc(F)cc1 [Merestinib] (2.5 µM) 0, c1ccc(-c2[nH]ncc2-c2ccnc3ccccc23)nc1 (10 µM) 0, O=C(CSC1=NCCN1)NC1CCCCCC1 [ICCB-19 (hydrochloride)] (2.5 µM) 0, Cn1cc(-c2cnn3c(N)c(Br)c([C@@H]4CCCNC4)nc23)cn1 (2.5 µM) 0, O=C(Nc1cn[nH]c1-c1ccccn1)c1nn(C2CCNCC2)cc1Cl (10 µM) 0, Cc1nc(-c2cn3c(n2)-c2ccc(-c4cnn(C(C)(C)C(N)=O)c4)cc2OCC3)n(C(C)C)n1 [Taselisib] (10 µM) 0, O=C(NCCN1CCOCC1)c1cc2c(Oc3ccc(NC(=O)C4(C(=O)Nc5ccc(F)cc5)CC4)cc3)ccnc2[nH]1 [Tyrosine kinase inhibitor] (10 µM) 0, CN(CC(=O)N(Cc1ccc(C2CCCCC2)cc1)c1ccc(C(=O)NO)cc1)S(=O)(=O)c1c(F)c(F)c(F)c(F)c1F (2.5 µM) 0, Cc1c(-c2c(F)cc(C(N)=O)c3[nH]c4c(c23)CC[C@H](C(C)(C)O)C4)cccc1-n1c(=O)c2cccc(F)c2n(C)c1=O (2.5 µM) 0, c1cncc(CN2CCC(n3ncc4c(N5CCOCC5)nc(-c5ccc6[nH]ccc6c5)nc43)CC2)c1 (10 µM) 0, Cc1cccc(-c2[nH]ncc2-c2ccc(F)c(-c3cnn(CCO)c3)c2)n1 (10 µM) 0, COc1cc2nccc(Oc3ccc(NC(=O)NC4CC4)c(Cl)c3)c2cc1C(N)=O [Lenvatinib (mesylate)] (10 µM) 0, COc1cc2c(N3CCN(C(=O)Nc4ccc(OC(C)C)cc4)CC3)ncnc2cc1OCCCN1CCCCC1 [Tandutinib] (10 µM) 0, COc1cccc(OC)c1C(=O)OCc1cc(O)ccc1O[C@@H]1O[C@H](CO)[C@@H](O)[C@H](O)[C@H]1O [Curculigoside] (10 µM) 0, CNC(=O)c1ccc(C)c(-n2c(C)cc(OCc3ccc(F)cc3F)c(Br)c2=O)c1 (10 µM) 0, C=CC(=O)Nc1cc(C)ccc1Nc1nc(Nc2cc(OC)ncc2C)ncc1C(F)(F)F (10 µM) 0, CC(=O)NC1CC(n2cnc(NC(=O)Cc3ccc4ccccc4c3)c2)C1 (stereo not drawn) (10 µM) 0
